For at least one compound, name, drawing or mass did not settle the structure.
System: post-ganglionic nicotinic acetylcholine receptors
Assay: Oral single agents in patients with damaged pre-ganglionic vagus nerve: organ function
Assay type: in vivo, human
Excerpt: In one embodiment of the invention, transdermal (topical) application of nicotine, applied near the lower right-hand corner of the abdomen stimulates the post-ganglionic nicotinic acetylcholinergic receptor controlling the ileocecal valve, for example, allowing the valve to open. Oral nicotine, however, is ineffective at stimulating the post-ganglionic nicotinic acetylcholinergic nerves in the abdomen, yet it exposes the patient to the direct (and negative) effect on the cerebellum.^38 In numerous patients tested, oral physostigmine or Huperzine A (both inhibitors of acetylcholinesterase, and thus indirect stimulators of both nicotinic and muscarinic acetylcholine receptors) were not effective in stimulating organ function when the pre-ganglionic portion of the vagus nerve was damaged. It is clear that in addition to inhibitors of acetylcholinesterase, other ingredients are necessary to stimulate organ function in this patient population. […] It was only through extensive testing that the inventor was able to discover the proper range of oral ingredients which were effective in stimulating these post-ganglionic nerves.

With `CNC(=O)Oc1ccc2c(c1)[C@]1(C)CCN(C)[C@@H]1N2C` [Physostigmine] the response to medication (Patient 1) was “unresponsive” and the “stimulating organ function when the pre-ganglionic portion of the vagus nerve was damaged” value (oral, numerous patients tested) was “not effective”.

From patent US9271953B2, “Methods for correction of organ dysfunction” (priority 2013, dated 2016)
